From patent US20150005347A1, “NITROGEN-CONTAINING HETEROCYCLIC DERIVATIVE HAVING 2-IMINO GROUP AND PEST CONTROL AGENT INCLUDING THE SAME” (MEIJI SEIKA PHARMA CO., LTD., priority 2012, published 2015)
Read-outs that look alike come from different tables or passages of the source. For part of these data: At least one read-out could not be matched to a standard name with certainty. Some of these results come from one statement about several compounds together.

Tests used:
Type in all cases: in vivo
Laodelphax striatella [1] = experiment: Pest control test of Laodelphax striatella, wheat seedling root treatment; conditions: seven days after release
Sogatella furcifera = experiment: Pest control test of Sogatella furcifera, soil irrigation treatment; conditions: 0.01 mg/seedling, three days after release
Description: Test Example 11 Pest Control Test of Sogatella furcifera
(§1) A rice seedling in pot culture was subjected to soil irrigation treatment with a drug solution of the compound of the present invention at a predetermined concentration, which had been prepared so as to be a 10% acetone water. Three days after the treatment, ten second instar larvae of Sogatella furcifera were each released thereto. Thereafter, the larvae were left to stand in a thermostatic chamber (16 hours of light period-8 hours of dark period) at 25° C. […] The test was performed in duplicate.
(§2) Mortality of larvae(%)={number of dead larvae/(number of survived larvae+number of dead larvae)}×100

Laodelphax striatella [2] = experiment: Pest control test of Laodelphax striatella, soil irrigation treatment of rice seedling; conditions: 0.05 mg/seedling, three days after release
Excerpt: <Soil Irrigation Treatment Test>
Test Example 10 Pest Control Test of Laodelphax striatellua
as §1, with “Laodelphax striatella” for “Sogatella furcifera”
as §2

Nilaparvata lugens = experiment: Pest control test of Nilaparvata lugens, soil irrigation treatment; conditions: 0.05 mg/seedling, three days after release
Description: Test Example 12 Pest Control Test of Nilaparvata lugens
as §1, with “Nilaparvata lugens” for “Sogatella furcifera”
as §2

[3] = test system: Nilaparvata lugens exhibiting drug resistance to imidacloprid; conditions: soil irrigation
Description: Test Example 18 Pest Control Test of Drug-Resistant Nilaparvata lugens
as §1, with “Three days after the treatment, ten second instar larvae of Sogatella furcifera were each released thereto.” left out
as §2
Further, for the origin of test pests, bugs collected outdoors within the Kumamoto prefecture in 2007 as the drug resistant Nilaparvata lugens, and bugs collected within the Kagoshima prefecture and then successively reared indoors for a long time as the imidacloprid susceptible populations of Nilaparvata lugens were used.

[4] = test system: Haemaphysalis longicornis; experiment: Pest control test of Haemaphysalis longicornis on the body surface of a mouse; conditions: 9.5 μg on the body surface of the mouse; five days after release
Spodoptera litura = experiment: Pest control test against Spodoptera litura, cabbage leaf disk foliar spray; conditions: foliar treatment at 500 ppm; third instar larvae; three days after release
Description: Test Example 2 Pest Control Test Against Spodoptera litura
(§3) A leaf disk having a diameter of 5.0 cm was cut out from a cabbage in pot culture, and a drug solution of the compound of the present invention at a predetermined concentration, which had been prepared so as to be a 50% acetone water (0.05% Tween20 available), was sprayed to the leaf disk. After an air drying process, third instar larvae were released thereto. Thereafter, the larvae were left to stand in a thermostatic chamber (16 hours of light period-8 hours of dark period) at 25° C. […] Test in duplicate.
as §2

[5] = test system: Trigonotylus caelestialium; experiment: Pest control test of Trigonotylus caelestialium, wheat seedling dipping; conditions: three days after treatment
Excerpt: Test Example 8 Pest Control Test of Trigonotylus caelestialium
Wheat seedling leaves and stems four days after the dissemination of seedlings were dipped for 30 seconds in a drug solution of the compound of the present invention at a predetermined concentration, which had been prepared so as to be a 50% acetone water (0.05% Tween20 available). After an air drying process, the wheat seedling leaves and stems were placed into a glass tube, and two second instar larvae of Trigonotylus caelestialium were released to the same glass tube. After the larvae were released, the tube was lidded to leave the larvae to stand in a thermostatic chamber at 25° C. In order to supply water to the wheat during the test, water was given to the wheat from the bottom of the glass tube.
as §2

Aphis gossypii = experiment: Pest control test of Aphis gossypii, cucumber leaf disk foliar spray; conditions: first instar larvae, three days after release
Summary of the method: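 Cucumber leaf disks (2.0 cm) sprayed with compound at a set concentration in 50% acetone water with 0.05% Tween20, air-dried, then infested with first instar larvae; held at 25 °C, 16 h light/8 h dark. Larval mortality (%) = dead/(survived + dead) × 100; duplicate.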

[6] = test system: Haemaphysalis longicornis; experiment: Pest control test of Haemaphysalis longicornis, dry film in glass vial; conditions: dry film from 200 ppm acetone solution; young mites; one day after release
[7] = test system: Frankliniella occidentalis; experiment: Pest control test of Frankliniella occidentalis, kidney bean leaf disk foliar spray; conditions: first instar larvae, three days after release
Summary of the method: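 Kidney bean leaf disks (2.8 cm) sprayed with compound in 50% acetone water with 0.05% Tween20, air-dried, then infested with first instar larvae. Held at 25° C, 16 h light/8 h dark; larval mortality (%) calculated from dead versus total larvae, in duplicate.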

Plutella xylostella = Plutella xylostella control test, cabbage leaf disk foliar spray; conditions: second instar larvae, three days after release
Summary of the method: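 Cabbage leaf disks (5.0 cm) were sprayed with compound in 50% acetone water with 0.05% Tween20, air-dried, then infested with second instar larvae. Disks were held at 25° C under 16 h light/8 h dark, in duplicate. Percent larval mortality was calculated as dead over total larvae.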

Laodelphax striatella [8] = experiment: Pest control test of Laodelphax striatella, foliar spray on rice seedling; conditions: foliar treatment at 1.25 ppm; second instar larvae; six days after release
Description: Test Example 6 Pest Control Test of Laodelphax striatella
as §3, with “A” for “A leaf disk having a diameter of 5.0 cm was cut out from a cabbage in pot culture, and a”, “was foliar” for “was”, “a rice seedling in pot culture.” for “the leaf disk.”, “second” for “third”
as §2

Aulacophora femoralis = experiment: Pest control test of Aulacophora femoralis, cucumber leaf disk foliar spray; conditions: foliar treatment at 10 ppm, three days after release
Description: Test Example 4 Pest Control Test of Aulacophora femoralis
as §3, with “2.8” for “5.0”, “cucumber” for “cabbage”, “adults” for “third instar larvae”, “adults” for “larvae”
Mortality of adults(%)={number of dead adults/(number of survived adults+number of dead adults)}×100

[9] = dipping treatment of the drug solution at 10 ppm
[10] = dipping treatment of the drug solution at 50 ppm

Row | SMILES | mortality of larvae (Laodelphax striatella [1]; 2 μg/seedling) [%] | mortality of larvae (Laodelphax striatella [1]; 20 μg/seedling) [%] | mortality of larvae (Sogatella furcifera) [%] | mortality of larvae (Laodelphax striatella [2]) [%] | mortality of larvae (Nilaparvata lugens) [%] | Insecticidal effects against Nilaparvata lugens (mortality of larvae %), Drug resistant populations three days after the treatment ([3]; Rate 0.01 mg/pot) [%] | Insecticidal effects against Nilaparvata lugens (mortality of larvae %), Drug resistant populations three days after the treatment ([3]; Rate 0.05 mg/pot) [%] | rate of insects agonized in death [4] [%] | mortality of larvae (Spodoptera litura) [%] | mortality of larvae [5, 9] [%] | mortality of larvae [5, 10] [%] | mortality of larvae (Aphis gossypii; foliar treatment at 20 ppm) [%] | mortality of larvae (Aphis gossypii; foliar treatment at 100 ppm) [%] | mortality of insects [6] [%] | mortality of larvae ([7]; foliar treatment at 100 ppm) [%] | mortality of larvae ([7]; foliar treatment at 500 ppm) [%] | mortality of larvae (Plutella xylostella; foliar treatment at 100 ppm) [%] | mortality of larvae (Plutella xylostella; foliar treatment at 500 ppm) [%] | mortality of larvae (Laodelphax striatella [8]) [%] | mortality of adults (Aulacophora femoralis) [%]
1 | FC(F)(F)C(=S)/N=c1\ccccn1Cc1ccc(Cl)nc1 [Compound 1-20, N-[1-((6-chloropyridin-3-yl)methyl)pyridin-2(1H)-ylidene]-2,2,2-trifluoroethanethioamide] | ≥ 80 | ≥ 80 | ≥ 80 | ≥ 80 | ≥ 80 | 81 | 100 | ≥ 80 | – | – | – | – | – | – | – | – | – | – | – | –
2 | FC(F)C(=S)N=c1ccccn1Cc1ccc(Cl)nc1 [Compound 1-21] | ≥ 80 | ≥ 80 | – | ≥ 80 | ≥ 80 | – | – | – | ≥ 80 | ≥ 80 | ≥ 80 | ≥ 80 | ≥ 80 | ≥ 80 | ≥ 80 | ≥ 80 | ≥ 80 | ≥ 80 | – | –
3 | Fc1ccc(Cn2ccccc2=NC(=S)C(F)(F)F)cn1 [Compound 3-20] | ≥ 80 | ≥ 80 | – | ≥ 80 | ≥ 80 | – | – | – | ≥ 80 | ≥ 80 | ≥ 80 | ≥ 80 | ≥ 80 | – | – | ≥ 80 | – | ≥ 80 | – | –
4 | FC(F)(F)C(=S)N=c1ccccn1Cc1ccc(Br)nc1 [Compound 4-20] | ≥ 80 | ≥ 80 | ≥ 80 | ≥ 80 | ≥ 80 | – | – | ≥ 80 | ≥ 80 | ≥ 80 | ≥ 80 | – | ≥ 80 | – | – | ≥ 80 | ≥ 80 | ≥ 80 | ≥ 80 | ≥ 80
